Values of other authors, collected in article PMC2233905 (The Journal of General Physiology, 2004).

System: native rERG currents in GH3 cells
Settings: ref Barros et al., 1997; cited from earlier work

## COc1ccc(CCN2CCC(Nc3nc4ccccc4n3Cc3ccc(F)cc3)CC2)cc1 [astemizole]
  IC50: ~0.05 µM
